Results on one compound are retold here after US6627211B1, “Transnasal anticonvulsive compositions and modulated process” (SK Corporation, priority 1999, dated 2003).

This data set is described as follows: Bioavailability and pharmacokinetics of diazepam preparations after IV and IN administration. Conditions: rabbits, repeated intranasal application 5 minutes after the first dosing.

Consider `CN1C(=O)CN=C(c2ccccc2)c2cc(Cl)ccc21` [Diazepam, diazepam], for which the “time at which plasma diazepam level after the second dosing exceeds that of the single IV administration” value was not above 7 min.
